The values below come from paper PMC11086750.

By UniProt entry, the sequences of proteins in these tests, tags left out.
UniProt Q86WV6: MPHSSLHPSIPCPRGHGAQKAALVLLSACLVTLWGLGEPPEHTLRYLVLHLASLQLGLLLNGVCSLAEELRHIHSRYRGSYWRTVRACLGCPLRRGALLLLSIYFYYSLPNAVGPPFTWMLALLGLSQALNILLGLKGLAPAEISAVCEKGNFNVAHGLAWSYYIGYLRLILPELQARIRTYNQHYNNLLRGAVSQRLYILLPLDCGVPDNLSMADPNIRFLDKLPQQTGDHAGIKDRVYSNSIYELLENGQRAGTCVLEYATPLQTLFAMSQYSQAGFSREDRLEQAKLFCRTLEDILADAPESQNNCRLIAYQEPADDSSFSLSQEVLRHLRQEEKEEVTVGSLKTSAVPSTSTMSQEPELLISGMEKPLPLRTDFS

Results are given in words; binding and its absence hold for the method and conditions named. Binding seen in cells or lysates may run through a third protein. Some binding calls cover weakened binding; strength is not graded here. For some assays here: Sequences can lack the tags named with a protein.

In test [1] the target is FLAG-STING (stimulator of interferon genes) (UniProt Q86WV6). Put plainly: co-IP; HEK293 cells co-transfected with a FLAG-tagged and an HA-tagged protein; IP with anti-FLAG beads, immunoblot with HA antibody.
Test [2] concerns the target Flag-STING expressed in BEAS-2B cells, Q86WV6. Nature of the test: co-IP; EV or GSDMB KO BEAS-2B cells transfected with Flag-STING; IP with anti-FLAG beads, immunoblot with anti-TBK1 antibody. Conditions: remark: other sources report otherwise.

B1: HA-GSDMB (Gasdermin B) (protein, UniProt Q8TAX9 1-416)
chain: MFSVFEEITRIVVKEMDAGGDMIAVRSLVDADRFRCFHLVGEKRTFFGCRHYTTGLTLMDILDTDGDKWLDELDSGLQGQKAEFQILDNVDSTGELIVRLPKEITISGSFQGFHHQKIKISENRISQQYLATLENRKLKRELPFSFRSINTRENLYLVTETLETVKEETLKSDRQYKFWSQISQGHLSYKHKGQREVTIPPNRVLSYRVKQLVFPNKETMNIHFRGKTKSFPEEKDGASSCLGKSLGSEDSRNMKEKLEDMESVLKDLTEEKRKDVLNSLAKCLGKEDIRQDLEQRVSEVLISGELHMEDPDKPLLSSLFNAAGVLVEARAKAILDFLDALLELSEEQQFVAEALEKGTLPLLKDQVKSVMEQNWDELASSPPDMDYDPEARILCALYVVVSILLELAEGPTSVSS
B1: in test [1], the binding entry was “binds”.

B2: TBK1, Q9UHD2 1-729 (enzyme)
chain: MQSTSNHLWLLSDILGQGATANVFRGRHKKTGDLFAIKVFNNISFLRPVDVQMREFEVLKKLNHKNIVKLFAIEEETTTRHKVLIMEFCPCGSLYTVLEEPSNAYGLPESEFLIVLRDVVGGMNHLRENGIVHRDIKPGNIMRVIGEDGQSVYKLTDFGAARELEDDEQFVSLYGTEEYLHPDMYERAVLRKDHQKKYGATVDLWSIGVTFYHAATGSLPFRPFEGPRRNKEVMYKIITGKPSGAISGVQKAENGPIDWSGDMPVSCSLSRGLQVLLTPVLANILEADQEKCWGFDQFFAETSDILHRMVIHVFSLQQMTAHKIYIHSYNTATIFHELVYKQTKIISSNQELIYEGRRLVLEPGRLAQHFPKTTEENPIFVVSREPLNTIGLIYEKISLPKVHPRYDLDGDASMAKAITGVVCYACRIASTLLLYQELMRKGIRWLIELIKDDYNETVHKKTEVVITLDFCIRNIEKTVKVYEKLMKINLEAAELGEISDIHTKLLRLSSSQGTIETSLQDIDSRLSPGGSLADAWAHQEGTHPKDRNVEKLQVLLNCMTEIYYQFKKDKAERRLAYNEEQIHKFDKQKLYYHATKAMTHFTDECVKKYEAFLNKSEEWIRKMLHLRKQLLSLTNQCFDIEEEVSKYQEYTNELQETLPQKMFTASSGIKHTMTPIYPSSNTLVEMTLGMKKLKEEMEGVVKELAENNHILERFGSLTMDGGLRNVDCL
Take B2: the binding entry in test [2] is “binds”.
